The assay in a line: qHTS Assay to Find Inhibitors of Chronic Active B-Cell Receptor Signaling. The settings on record: ABC-DLBCL IkBa-CBG/CBR reporter, luminescence ratio (green luciferase fused to IkBa over red control in TMD8 lymphoma cells), 4 h. The method in brief:
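TMD8 human ABC-DLBCL cells with doxycycline-inducible IκBα–green luciferase fusion and unfused red luciferase, in 0.5% FBS medium; compounds up to 46 uM, 4 h at 37C. Green/red luminescence ratio, filter-overlap corrected, fitted to concentration-response curves.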

Setting [1] is: measured here: CBR red luminescence, cell number.
Setting [2] is: measured here: IkBa-CBG green luminescence.

Some of the results follow. Further columns of the screen follow, without active or inactive calls. Most of these compounds were active or inconclusive in the main read-out, so they are no random draw. Potencies come from curve fits of mixed quality, noted in brackets.

For orientation: AC50 means the concentration at which the activity in the assay is half-maximal. For the compound `Cn1c(=O)[nH]c(=O)c2c1nc(N/N=C/C(Br)=C/c1ccccc1)n2CCO`, the half-maximal activity concentration (AC50) under setting [1] is 14.1 µM [rising, partial curve, poor fit]. Take `COc1ccc(CCNC(=O)CSc2nn3c(=O)c(C)nnc3s2)cc1OC`: the AC50 under setting [1] was 7.08 µM [rising, full curve, poor fit]. Still for that read-out and setting: the value for `CCN(CC)CCNC(=O)CCCCn1c(=S)[nH]c2c([nH]c3ccc(OC)cc32)c1=O` was 11.2 µM [falling, partial curve, poor fit]; that for `CC(/C=C/c1ccco1)=N\NC(=O)c1cccc(Cl)c1` was 0.146 µM [falling, full curve, poor fit]; that for `Cc1cc(-c2nnnn2-c2ccc(F)cc2)no1` was 0.631 µM [rising, full curve, poor fit]. Same read-out and setting: to `CCC(CC)C(=O)NCCc1cc2cc(C)c(C)cc2[nH]c1=O` belongs 6.51 µM [falling, single point]; to `Cc1cc2oc(=O)cc(COC(=O)c3n[nH]c4ccccc34)c2cc1C`, 3.26 µM [falling, full curve]; to `COc1ccc(C(C)=O)cc1COC(=O)CCC(=O)c1cccs1`, 5.17 µM [falling, single point].

As to `CCSc1nc2sc3c(c2c(=O)n1CC)CCC3`, under setting [1], the AC50 is 35.5 µM [rising, single point].

For `O=S(=O)(NCCCN1CCOCC1)c1ccc2ccccc2c1`, the AC50 under setting [1] was 3.16 µM [falling, full curve, poor fit].

Take `CCOc1cc(/C=N/NC(=O)CN2CCOCC2)ccc1OCc1ccc(Cl)cc1`: the AC50 under setting [1] was 6.51 µM [rising, single point].

Consider `Cc1ccc(CCNC(=O)C2CCN(S(=O)(=O)c3ccc4c(c3)NC(=O)C(C)S4)CC2)cc1` (stereo not drawn), for which the AC50 under setting [1] was 15.8 µM [falling, single point].

For the compound `CC(C)c1cc(=O)n2c(nc3ccccc32)[nH]1`, under setting [1], the AC50 is 6.31 µM [falling, partial curve].

As for `Cc1ccc(-c2nc(CS(=O)CC(=O)NCc3ccccn3)c(C)o2)cc1` (stereo not drawn), the AC50 under setting [1] is 6.51 µM [falling, single point].

As for `CN(C)S(=O)(=O)c1cccc(NC(=O)COC(=O)c2cccn2C)c1`, the AC50 under setting [1] was 11.2 µM [falling, partial curve]. Still for that read-out and setting: the value for `O=C(OCC(=O)N1CCCCC1)c1cccs1` was 29.1 µM [rising, single point]; that for `CC(=O)c1cccc(NC(=S)NC(=O)c2ccccc2C)c1` was 1.12 µM [falling, full curve].

In the case of `O=C(CSc1cccc[n+]1[O-])c1ccc(Cl)s1`, the AC50 was 5.01 µM [falling, full curve] under setting [1] and 2 µM [falling, full curve] under setting [2].

`Cc1ccc(C(=O)NCC(=O)NCC(=O)OCC(=O)c2ccc(Br)cc2)cc1`: under setting [1], the AC50 is 29.1 µM [rising, single point]. Regarding `COc1ccc(/C=C2\SC(=S)N(CCC(=O)Nc3cccc(O)c3)C2=O)cc1OC`, the AC50 under setting [1] is 14.1 µM [falling, single point].

With `CCc1nc2oc3cc(OC)ccc3c(=O)c2c(=O)n1-c1ccccc1`, the AC50 under setting [1] was 0.366 µM [falling, full curve]. On to `CCOc1ccc(/C=N/n2c(SC)nnc(C(C)(C)C)c2=O)cc1`, for which the AC50 under setting [1] was 6.31 µM [falling, single point]. The same measure, in the same setting: the value for `Cc1ccc(NC(=O)COc2ccccc2C=O)cc1Cl` was 31.6 µM [falling, single point]. Still for that read-out and setting: the value for `NNC(=O)c1cc(Br)cs1` was 8.2 µM [falling, partial curve]; that for `O=C(CSc1nnc(CN2CCOCC2)n1-c1ccccc1)Nc1ccc(Cl)cc1` was 18.4 µM [falling, partial curve, poor fit]. For the compound `CC1CCCCN1CC(=O)Nc1ccccc1Sc1ccccc1` (stereo not drawn), the AC50 under setting [1] was 29.1 µM [rising, single point]. On the same count and under the same terms, to `Cc1ccc(N=C2SC(C(=O)Nc3ccc(OC(F)(F)F)cc3)C(N)=C2C(=O)Nc2c(C)cc(C)cc2C)cc1` (stereo not drawn) belongs 20.6 µM [falling, single point].

With `COc1cc(OC)cc(C(=O)NCc2ccc3c(c2)CCN3C(=O)c2ccccc2)c1`, the AC50 is 35.5 µM [rising, single point] under setting [1] and 11.2 µM [falling, partial curve] under setting [2]. As to `CCn1c(SCC(=O)O)nc2sc3c(c2c1=O)CCC3`, under setting [1], the AC50 was 25.9 µM [falling, partial curve, poor fit]. On the same count and under the same terms, to `O=C(O)CCCC(=O)Nc1ccc(N=Nc2ccccc2)cc1` belongs 14.1 µM [falling, partial curve, poor fit]; to `Cc1oc2c(c(C)cc3oc(=O)c(CC(=O)N[C@@H](CC(C)C)C(=O)O)c(C)c32)c1C`, 5.01 µM [falling, full curve, poor fit]; to `COC(=O)c1cnc(SCC(=O)c2ccccc2)n1C`, 35.5 µM [falling, single point]. The same measure, in the same setting: to `CCCCn1nc2cc(C(=O)NCCc3cccs3)ccc2c1OCC` belongs 1.46 µM [rising, full curve]; to `CCN(CC)S(=O)(=O)c1ccc(C(=O)NCc2n[nH]c(=S)n2-c2ccccc2OC)cc1`, 2.51 µM [falling, full curve].

As for `CN(C)S(=O)(=O)c1ccc(NC(=O)CN2CCCc3ccccc32)cc1`, the AC50 under setting [1] was 14.1 µM [rising, single point].

Consider `COc1ccc(C(=O)c2nc3c(n2O)CCCCC3)cc1`, for which, under setting [1], the AC50 is 6.51 µM [falling, partial curve]. On the same count and under the same terms, the value for `CCc1[nH]nc2c1C1(CCN(C(=O)OCc3ccccc3)CC1)C(C#N)=C(N)O2` was 2.59 µM [falling, partial curve, poor fit]. With `Cc1cc(C(=O)N/N=C/c2ccc[nH]2)no1`, the AC50 under setting [1] is 13 µM [falling, single point].

Turning to `Cc1ccccc1C(=O)NC(=S)N(C)CCc1ccccn1`, the AC50 under setting [1] was 22.4 µM [falling, partial curve, poor fit]. Consider `COc1cccc(CNC(=O)c2n[nH]c3ccccc23)c1`, for which, under setting [1], the AC50 is 17.8 µM [falling, partial curve, poor fit]. The same measure, in the same setting: the value for `O=C(N/N=C/c1c[nH]c2ccccc12)c1cc(-c2ccc3ccccc3c2)n[nH]1` was 8.2 µM [rising, partial curve, poor fit]; that for `O=C1CC2(CCN(C(=O)c3c(F)cccc3Cl)CC2)Oc2ccccc21` was 5.8 µM [falling, partial curve, poor fit]. Regarding `CC(C)CN(C(=O)c1ccc(S(=O)(=O)N2CCCC2)cc1)C1CCS(=O)(=O)C1` (stereo not drawn), the AC50 under setting [1] was 20.6 µM [rising, partial curve]. Still for that read-out and setting: to `O=C(CSc1ccccn1)c1ccc2c(c1)OCO2` belongs 0.92 µM [rising, full curve, poor fit]. Take `CN=c1scc(-c2cccs2)n1/N=C/c1ccccc1O`: the AC50 is, setting by setting: under setting [1], 3.26 µM [falling, full curve]; under setting [2], 5.17 µM [falling, partial curve, poor fit]. With `Cc1cccc(OCCCC(=O)NNC(=O)c2ccc(F)cc2)c1`, under setting [1], the AC50 is 4.11 µM [falling, single point]. As for `CC1CCC(C(C)C)C2=C1C(C#N)(C#N)C(C#N)(C#N)C(c1ccccc1)N2` (stereo not drawn), the AC50 under setting [1] was 12.6 µM [falling, single point]. Take `COc1cccc(-c2cc(C(=O)Nc3cccnc3)no2)c1`: the AC50 under setting [1] was 6.51 µM [falling, partial curve]. In the case of `O=C(Cn1ncc(Cl)c(Cl)c1=O)N1CCN(Cc2ccccc2)CC1`, under setting [1], the AC50 was 8.91 µM [falling, partial curve, poor fit]. For `COC(=O)C1=C(C)N(Cc2ccccc2)C(=S)N[C@H]1c1cccc(C(F)(F)F)c1`, the AC50 is, setting by setting: under setting [1], 4.47 µM [falling, full curve]; under setting [2], 35.5 µM [rising, partial curve, poor fit]. Turning to `CC(=O)n1nc(-c2ccccc2)nc1NCc1ccc(N(C)C)cc1`, under setting [1], the AC50 was 28.2 µM [rising, single point]. Still for that read-out and setting: to `O=C(Nc1ccc(Cl)cc1Cl)c1csc(-c2cccnc2)n1` belongs 15.8 µM [rising, partial curve]; to `Cc1cccc(C)c1-n1c(C)cc(/C=N\Nc2ccc([N+](=O)[O-])cn2)c1C`, 0.146 µM [rising, full curve, poor fit]; to `O=C(c1ccc(N2CCCCC2)c([N+](=O)[O-])c1)N1CCN(c2ccccn2)CC1`, 15.8 µM [rising, partial curve, poor fit]. Turning to `Cn1c(=O)cc(N2CCc3ccccc32)[nH]c1=O`, the AC50 under setting [1] is 6.51 µM [falling, full curve]. As for `O=C(CNC(=O)c1ccccc1)OCC(=O)c1ccc(Cl)s1`, the AC50 runs as follows: under setting [1], 20.6 µM [rising, single point]; under setting [2], 16.4 µM [falling, partial curve, poor fit].

Regarding `COc1ccccc1/C=N/Nc1nncc2ccccc12`, under setting [1], the AC50 was 7.31 µM [falling, partial curve]. On the same count and under the same terms, the value for `Cc1ccc(NC(=O)C(c2ccccc2)N2CCN(CC(=O)NC3CC3)CC2)cc1Cl` (stereo not drawn) was 4.11 µM [rising, full curve, poor fit]; that for `COc1ccccc1OCC(=O)Nc1cc(Cl)ccc1N1CCCCC1` was 2.06 µM [falling, full curve].

Turning to `Nc1nc(Nc2ccc(Cl)cc2Cl)nc(C(F)(F)F)n1`, the AC50 under setting [1] is 6.51 µM [rising, single point]. The same measure, in the same setting: the value for `CN1C(=O)C(C)(C)c2cc(S(=O)(=O)N3CCN(c4ccc(F)cc4)CC3)ccc21` was 35.5 µM [falling, single point]; that for `CC(C)(C)OC(=O)N/N=C\c1ccc([N+](=O)[O-])s1` was 1.12 µM [rising, full curve, poor fit]. Consider `CCC(C)N(C(=O)CSc1nnc(-c2cccs2)n1C1CC1)C1CCS(=O)(=O)C1` (stereo not drawn), for which the AC50 under setting [1] was 1.84 µM [rising, full curve, poor fit].

These data come from PubChem BioAssay AID493014 (National Center for Advancing Translational Sciences (NCATS), 2011).
